From publication PMC5342796
No constants are given. Whether binding was seen depends on the method and setting. Binding seen in cells or lysates may run through a third protein. Some entries that bind do so weakly or less than the wild type.

Amino acid sequences for entries named in this document (tags omitted).
UniProt Q9H6I2: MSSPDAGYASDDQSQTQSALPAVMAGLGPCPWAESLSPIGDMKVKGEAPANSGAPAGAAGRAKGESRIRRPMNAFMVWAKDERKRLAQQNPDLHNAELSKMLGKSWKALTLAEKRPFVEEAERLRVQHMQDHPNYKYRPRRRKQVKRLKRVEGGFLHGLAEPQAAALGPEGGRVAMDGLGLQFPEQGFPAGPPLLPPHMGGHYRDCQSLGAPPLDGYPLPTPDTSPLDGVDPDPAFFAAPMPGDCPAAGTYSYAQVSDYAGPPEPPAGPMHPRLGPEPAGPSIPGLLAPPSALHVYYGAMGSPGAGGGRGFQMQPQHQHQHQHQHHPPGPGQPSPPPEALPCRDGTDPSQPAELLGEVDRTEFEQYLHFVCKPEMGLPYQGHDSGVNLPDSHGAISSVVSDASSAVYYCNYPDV
UniProt Q96JK9: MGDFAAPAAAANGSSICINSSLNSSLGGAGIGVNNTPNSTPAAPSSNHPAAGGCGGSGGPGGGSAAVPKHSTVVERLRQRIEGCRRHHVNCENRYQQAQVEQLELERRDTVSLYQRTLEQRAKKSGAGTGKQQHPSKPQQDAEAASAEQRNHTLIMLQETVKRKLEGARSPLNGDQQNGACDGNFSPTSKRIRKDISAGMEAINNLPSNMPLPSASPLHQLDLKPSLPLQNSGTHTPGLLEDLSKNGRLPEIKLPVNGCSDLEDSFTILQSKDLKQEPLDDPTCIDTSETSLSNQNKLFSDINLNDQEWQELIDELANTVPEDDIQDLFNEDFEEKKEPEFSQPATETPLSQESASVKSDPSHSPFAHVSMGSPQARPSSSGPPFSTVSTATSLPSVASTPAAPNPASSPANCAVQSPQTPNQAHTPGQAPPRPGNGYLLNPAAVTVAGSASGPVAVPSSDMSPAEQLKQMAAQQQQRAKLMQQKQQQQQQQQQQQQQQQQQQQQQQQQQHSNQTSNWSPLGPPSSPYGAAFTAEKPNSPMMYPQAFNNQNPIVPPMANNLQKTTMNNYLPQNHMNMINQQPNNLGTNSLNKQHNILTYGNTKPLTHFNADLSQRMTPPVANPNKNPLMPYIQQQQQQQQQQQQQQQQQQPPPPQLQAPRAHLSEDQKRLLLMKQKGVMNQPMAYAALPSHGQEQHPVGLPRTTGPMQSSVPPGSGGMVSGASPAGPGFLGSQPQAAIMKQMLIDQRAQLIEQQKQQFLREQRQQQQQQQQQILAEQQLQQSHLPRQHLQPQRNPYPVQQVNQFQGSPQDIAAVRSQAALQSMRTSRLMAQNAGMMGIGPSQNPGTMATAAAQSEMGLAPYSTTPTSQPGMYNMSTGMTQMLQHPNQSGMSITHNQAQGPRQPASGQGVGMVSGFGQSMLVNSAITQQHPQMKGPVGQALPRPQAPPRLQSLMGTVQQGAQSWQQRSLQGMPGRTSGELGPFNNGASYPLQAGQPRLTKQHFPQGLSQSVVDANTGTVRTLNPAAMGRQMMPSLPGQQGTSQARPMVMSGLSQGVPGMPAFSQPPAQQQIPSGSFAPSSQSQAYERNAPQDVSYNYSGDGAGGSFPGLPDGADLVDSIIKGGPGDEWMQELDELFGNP

Legend:
[1] = biological target: SOX17 (SRY-box containing gene 17) (UniProt Q9H6I2); test: co-IP; HEK-293 cells transfected with SOX17 and MAML3 cDNA; whole cell lysate; SOX17 antibody for IP, western blot with MAML3 antibodies; Protein A+G agarose beads
SOX17 in HEC-1B cells = SOX17 in HEC-1B cells (UniProt Q9H6I2); test: co-IP; HEC-1B cells (transfected with SOX17 cDNA by the legend; called endogenous in the text); whole cell extract; Co-IP and western blot

Row | Substance | binding [1] | binding (SOX17 in HEC-1B cells)
1 | MAML3 (from UniProt Q96JK9 1-1138) | binds | –
2 | MAML3 in HEC-1B cells (from UniProt Q96JK9 1-1138) | – | binds
